In the supplement of paper PMC12823440, “Inhibitors supercharge kinase turnover through native proteolytic circuits” (Nature, 2025):
Where a name gives a salt, the structure may show the parent alone. The list shows a part of the results. Hit calls seldom repeat between salt and free forms of one compound.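 In K562 cells expressing nanoluciferase-fused kinases, luminescence was recorded at 4 h intervals between 2 and 18 h, normalized as percent of control with DMSO at 100% and a positive control at 0%. A significant (2 sigma) signal drop marks a time point as decreased. The authors' rule for a hit is not shown and takes in more than the number of time points.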

Chains of the proteins cited; added tags and fusions are not shown. Lines headed by an entry give the natural chain unless they say otherwise; changes in a name come on top.
UniProt P28482, whole entry: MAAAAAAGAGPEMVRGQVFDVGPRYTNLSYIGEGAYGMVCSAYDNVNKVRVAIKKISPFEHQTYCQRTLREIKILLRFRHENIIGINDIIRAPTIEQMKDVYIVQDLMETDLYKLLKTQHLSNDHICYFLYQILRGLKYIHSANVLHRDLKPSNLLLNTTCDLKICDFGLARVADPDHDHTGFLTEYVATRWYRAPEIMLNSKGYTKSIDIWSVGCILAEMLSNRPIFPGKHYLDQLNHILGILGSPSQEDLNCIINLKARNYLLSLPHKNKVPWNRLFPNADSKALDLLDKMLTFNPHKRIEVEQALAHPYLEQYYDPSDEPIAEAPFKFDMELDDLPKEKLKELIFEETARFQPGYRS
UniProt P31152, whole entry: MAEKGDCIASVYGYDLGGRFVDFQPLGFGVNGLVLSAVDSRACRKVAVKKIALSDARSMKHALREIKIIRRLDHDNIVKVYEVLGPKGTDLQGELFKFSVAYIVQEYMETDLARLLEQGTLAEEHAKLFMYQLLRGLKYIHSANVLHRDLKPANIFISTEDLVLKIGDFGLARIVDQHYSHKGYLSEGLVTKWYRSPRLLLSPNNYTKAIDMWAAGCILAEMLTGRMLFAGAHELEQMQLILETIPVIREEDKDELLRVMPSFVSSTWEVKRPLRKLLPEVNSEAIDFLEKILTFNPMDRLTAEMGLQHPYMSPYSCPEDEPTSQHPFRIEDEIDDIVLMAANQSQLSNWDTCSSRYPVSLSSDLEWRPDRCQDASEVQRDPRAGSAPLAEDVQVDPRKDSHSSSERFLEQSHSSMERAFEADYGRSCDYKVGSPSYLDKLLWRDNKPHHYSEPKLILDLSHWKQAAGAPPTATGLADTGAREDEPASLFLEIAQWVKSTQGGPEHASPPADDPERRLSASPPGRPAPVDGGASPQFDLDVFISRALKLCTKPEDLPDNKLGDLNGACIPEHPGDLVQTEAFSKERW
UniProt P49137, whole entry, looked up: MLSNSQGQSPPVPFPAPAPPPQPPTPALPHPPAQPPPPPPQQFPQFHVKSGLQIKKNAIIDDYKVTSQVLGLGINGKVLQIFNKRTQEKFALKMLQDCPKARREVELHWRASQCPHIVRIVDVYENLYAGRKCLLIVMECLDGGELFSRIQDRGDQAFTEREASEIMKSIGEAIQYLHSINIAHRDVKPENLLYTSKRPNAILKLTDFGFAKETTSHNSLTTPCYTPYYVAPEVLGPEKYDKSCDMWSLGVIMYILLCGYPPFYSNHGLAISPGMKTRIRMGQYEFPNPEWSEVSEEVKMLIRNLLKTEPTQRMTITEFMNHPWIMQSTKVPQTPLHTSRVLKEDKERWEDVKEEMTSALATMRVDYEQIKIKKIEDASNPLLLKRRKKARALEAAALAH
UniProt Q9BUB5: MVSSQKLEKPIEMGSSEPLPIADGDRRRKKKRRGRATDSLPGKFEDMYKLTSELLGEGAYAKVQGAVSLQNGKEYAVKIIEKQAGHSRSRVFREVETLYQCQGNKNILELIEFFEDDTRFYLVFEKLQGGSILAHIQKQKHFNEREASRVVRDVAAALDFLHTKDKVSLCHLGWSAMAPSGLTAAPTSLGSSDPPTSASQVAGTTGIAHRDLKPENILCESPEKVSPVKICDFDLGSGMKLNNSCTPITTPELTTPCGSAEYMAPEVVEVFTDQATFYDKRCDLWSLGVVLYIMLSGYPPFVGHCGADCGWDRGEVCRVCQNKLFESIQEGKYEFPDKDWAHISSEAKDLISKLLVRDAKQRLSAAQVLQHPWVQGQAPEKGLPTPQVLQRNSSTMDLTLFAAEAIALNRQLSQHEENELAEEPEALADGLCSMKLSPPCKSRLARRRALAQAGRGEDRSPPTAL
UniProt Q16620, whole entry, looked up: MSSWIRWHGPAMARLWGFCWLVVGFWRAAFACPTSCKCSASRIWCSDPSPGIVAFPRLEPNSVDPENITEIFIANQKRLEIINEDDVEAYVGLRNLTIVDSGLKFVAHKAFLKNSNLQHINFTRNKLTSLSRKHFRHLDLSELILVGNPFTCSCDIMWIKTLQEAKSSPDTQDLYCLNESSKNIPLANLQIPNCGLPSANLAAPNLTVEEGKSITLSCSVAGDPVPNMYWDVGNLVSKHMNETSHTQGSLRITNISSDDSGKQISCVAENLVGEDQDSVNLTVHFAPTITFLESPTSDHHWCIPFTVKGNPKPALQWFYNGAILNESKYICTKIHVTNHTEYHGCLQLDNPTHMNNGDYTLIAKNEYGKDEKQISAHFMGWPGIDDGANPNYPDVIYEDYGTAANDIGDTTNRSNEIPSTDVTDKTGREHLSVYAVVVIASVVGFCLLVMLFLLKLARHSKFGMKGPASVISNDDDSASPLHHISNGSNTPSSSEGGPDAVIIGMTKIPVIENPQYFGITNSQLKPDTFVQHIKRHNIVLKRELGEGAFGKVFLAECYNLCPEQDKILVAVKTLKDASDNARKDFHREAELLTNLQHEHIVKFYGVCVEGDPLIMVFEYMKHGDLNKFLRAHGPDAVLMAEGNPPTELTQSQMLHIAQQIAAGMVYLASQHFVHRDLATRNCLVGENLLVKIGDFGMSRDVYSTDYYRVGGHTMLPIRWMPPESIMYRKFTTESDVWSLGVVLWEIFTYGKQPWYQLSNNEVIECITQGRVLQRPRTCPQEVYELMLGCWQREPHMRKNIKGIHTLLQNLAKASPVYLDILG
UniProt Q16288, whole entry, looked up: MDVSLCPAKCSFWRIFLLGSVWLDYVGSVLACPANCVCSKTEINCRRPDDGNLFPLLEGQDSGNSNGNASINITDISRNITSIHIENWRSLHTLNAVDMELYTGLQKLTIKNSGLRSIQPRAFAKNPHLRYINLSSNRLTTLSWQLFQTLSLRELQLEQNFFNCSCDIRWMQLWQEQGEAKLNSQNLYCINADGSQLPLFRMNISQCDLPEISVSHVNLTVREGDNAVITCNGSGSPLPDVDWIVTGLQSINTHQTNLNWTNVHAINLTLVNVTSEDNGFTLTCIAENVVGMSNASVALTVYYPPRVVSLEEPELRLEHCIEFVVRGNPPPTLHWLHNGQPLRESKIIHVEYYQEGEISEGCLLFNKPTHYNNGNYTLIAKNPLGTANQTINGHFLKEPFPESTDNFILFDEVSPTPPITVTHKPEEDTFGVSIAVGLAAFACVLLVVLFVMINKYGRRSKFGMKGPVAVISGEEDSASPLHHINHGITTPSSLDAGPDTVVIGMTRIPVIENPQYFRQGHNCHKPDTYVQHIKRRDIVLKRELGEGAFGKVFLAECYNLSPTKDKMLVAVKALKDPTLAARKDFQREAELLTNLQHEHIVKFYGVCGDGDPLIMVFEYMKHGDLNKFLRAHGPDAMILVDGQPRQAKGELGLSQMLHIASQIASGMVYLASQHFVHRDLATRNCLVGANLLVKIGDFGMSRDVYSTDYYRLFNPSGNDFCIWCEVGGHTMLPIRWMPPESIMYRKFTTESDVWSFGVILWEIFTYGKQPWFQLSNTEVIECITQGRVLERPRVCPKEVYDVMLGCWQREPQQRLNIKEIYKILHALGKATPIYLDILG
UniProt O96013: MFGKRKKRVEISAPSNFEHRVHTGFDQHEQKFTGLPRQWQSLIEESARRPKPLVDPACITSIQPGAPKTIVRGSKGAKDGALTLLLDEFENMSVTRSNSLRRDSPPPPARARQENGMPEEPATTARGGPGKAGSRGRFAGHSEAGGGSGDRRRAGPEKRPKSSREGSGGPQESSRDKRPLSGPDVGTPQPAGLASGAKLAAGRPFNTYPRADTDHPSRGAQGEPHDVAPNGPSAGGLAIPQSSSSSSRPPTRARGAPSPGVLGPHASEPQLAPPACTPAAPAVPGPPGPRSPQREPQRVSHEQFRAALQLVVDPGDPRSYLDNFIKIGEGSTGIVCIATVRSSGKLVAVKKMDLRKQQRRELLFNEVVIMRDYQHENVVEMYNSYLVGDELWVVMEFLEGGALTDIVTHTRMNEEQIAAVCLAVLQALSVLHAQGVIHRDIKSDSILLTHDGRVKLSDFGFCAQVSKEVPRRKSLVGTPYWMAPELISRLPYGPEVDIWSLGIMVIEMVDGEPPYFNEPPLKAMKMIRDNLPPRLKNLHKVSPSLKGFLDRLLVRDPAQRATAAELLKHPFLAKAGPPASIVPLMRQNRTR
UniProt Q96KB5: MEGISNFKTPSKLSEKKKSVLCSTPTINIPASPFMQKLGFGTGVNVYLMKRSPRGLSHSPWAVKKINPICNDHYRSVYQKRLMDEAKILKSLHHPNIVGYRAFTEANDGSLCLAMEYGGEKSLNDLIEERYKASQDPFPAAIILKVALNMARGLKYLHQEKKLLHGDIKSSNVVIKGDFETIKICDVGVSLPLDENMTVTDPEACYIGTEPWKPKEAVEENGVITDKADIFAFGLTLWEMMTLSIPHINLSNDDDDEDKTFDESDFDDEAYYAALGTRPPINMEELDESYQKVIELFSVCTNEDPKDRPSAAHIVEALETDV
UniProt P09619, whole entry: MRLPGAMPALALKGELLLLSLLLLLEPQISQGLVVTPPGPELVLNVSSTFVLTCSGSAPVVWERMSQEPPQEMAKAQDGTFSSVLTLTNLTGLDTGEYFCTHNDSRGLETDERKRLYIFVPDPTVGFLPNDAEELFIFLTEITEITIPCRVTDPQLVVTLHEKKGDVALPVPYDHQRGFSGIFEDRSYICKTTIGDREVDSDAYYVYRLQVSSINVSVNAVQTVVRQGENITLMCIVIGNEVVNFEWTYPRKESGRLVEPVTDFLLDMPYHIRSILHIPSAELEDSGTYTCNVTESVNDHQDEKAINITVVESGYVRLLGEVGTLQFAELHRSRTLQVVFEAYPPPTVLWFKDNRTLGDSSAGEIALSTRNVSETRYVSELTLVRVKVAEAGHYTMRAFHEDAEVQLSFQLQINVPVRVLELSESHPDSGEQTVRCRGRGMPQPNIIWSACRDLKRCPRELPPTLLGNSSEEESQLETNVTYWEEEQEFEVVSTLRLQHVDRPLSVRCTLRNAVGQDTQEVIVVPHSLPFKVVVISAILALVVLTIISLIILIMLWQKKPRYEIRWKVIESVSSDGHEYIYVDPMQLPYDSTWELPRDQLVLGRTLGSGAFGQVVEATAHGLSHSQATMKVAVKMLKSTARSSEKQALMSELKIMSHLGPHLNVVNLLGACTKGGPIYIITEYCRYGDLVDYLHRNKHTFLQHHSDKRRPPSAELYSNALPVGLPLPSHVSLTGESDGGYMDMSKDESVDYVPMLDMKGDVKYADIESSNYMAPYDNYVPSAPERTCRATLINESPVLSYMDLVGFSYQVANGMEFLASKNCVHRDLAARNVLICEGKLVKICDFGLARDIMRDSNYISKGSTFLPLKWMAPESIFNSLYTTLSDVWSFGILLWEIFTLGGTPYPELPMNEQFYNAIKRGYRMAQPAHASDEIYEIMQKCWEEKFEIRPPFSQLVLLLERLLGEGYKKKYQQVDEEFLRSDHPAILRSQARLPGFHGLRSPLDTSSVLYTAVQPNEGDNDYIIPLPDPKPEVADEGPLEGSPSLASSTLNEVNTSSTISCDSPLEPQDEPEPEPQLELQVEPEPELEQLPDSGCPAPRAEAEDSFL
UniProt Q15118, whole entry, looked up: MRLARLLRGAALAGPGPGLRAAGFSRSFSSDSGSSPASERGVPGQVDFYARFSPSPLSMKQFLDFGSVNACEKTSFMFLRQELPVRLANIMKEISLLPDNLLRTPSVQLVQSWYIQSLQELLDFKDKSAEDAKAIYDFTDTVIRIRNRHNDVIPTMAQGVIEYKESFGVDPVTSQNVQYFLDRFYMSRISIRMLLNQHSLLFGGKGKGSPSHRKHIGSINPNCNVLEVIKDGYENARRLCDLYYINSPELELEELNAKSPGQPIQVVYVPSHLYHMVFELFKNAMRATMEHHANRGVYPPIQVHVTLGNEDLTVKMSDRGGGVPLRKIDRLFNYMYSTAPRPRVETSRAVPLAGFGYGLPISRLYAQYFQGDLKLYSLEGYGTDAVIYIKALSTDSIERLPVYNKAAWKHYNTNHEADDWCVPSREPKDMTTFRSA

Key:
Test in all cases: kinase-Nluc reporter destabilization hit call (1 = scored as downregulated) (binary); higher = compound decreases kinase abundance
Details in all cases: K562, 2-18 h
MAPK1 = MAPK1 (UniProt P28482)
MAPK4 = MAPK4 (UniProt P31152)
MAPKAPK2 = MAPKAPK2 (UniProt P49137)
MKNK1 = MKNK1 (UniProt Q9BUB5)
NTRK2 = NTRK2 (UniProt Q16620)
NTRK3 = NTRK3 (UniProt Q16288)
PAK4 = PAK4 (UniProt O96013)
PBK = PBK (UniProt Q96KB5)
PDGFRB = PDGFRB (UniProt P09619)
PDK1 = PDK1 (UniProt Q15118)

Measured: kinase-Nluc reporter destabilization hit call

FC(F)(F)c1ccc(CNc2ccc(Cc3c[nH]c4ncc(Cl)cc34)cn2)cn1 [Pexidartinib]
inactive: MAPK1; 10 µM 0 | MAPK4; 10 µM 0 | MAPKAPK2; 10 µM 0 | MKNK1; 10 µM 0 | NTRK2; 10 µM 0 | NTRK3; 10 µM 0 | PAK4; 10 µM 0 | PBK; 10 µM 0 | PDGFRB; 10 µM 0 | PDK1; 10 µM 0

C#Cc1cccc(Nc2ncnc3cc(OCCOC)c(OCCO)cc23)c1 [Desmethyl Erlotinib]
inactive: MAPK1; 10 µM 0 | MAPK4; 10 µM 0 | MAPKAPK2; 10 µM 0 | MKNK1; 10 µM 0 | NTRK2; 10 µM 0 | NTRK3; 10 µM 0 | PAK4; 10 µM 0 | PBK; 10 µM 0 | PDGFRB; 10 µM 0 | PDK1; 10 µM 0

Nc1ncnc2c1c(-c1ccc(Oc3ccccc3)cc1)nn2[C@@H]1CCCNC1 [IBT6A (hydrochloride)]
inactive: MAPK1; 2.5 µM 0 | MAPK4; 2.5 µM 0 | MAPKAPK2; 2.5 µM 0 | MKNK1; 2.5 µM 0 | NTRK2; 2.5 µM 0 | NTRK3; 2.5 µM 0 | PAK4; 2.5 µM 0 | PBK; 2.5 µM 0 | PDGFRB; 2.5 µM 0 | PDK1; 2.5 µM 0

CCN(CC)CC(=O)Nc1c(C)cccc1C [Lidocaine (hydrochloride)]
inactive: MAPK1; 10 µM 0 | MAPK4; 10 µM 0 | MAPKAPK2; 10 µM 0 | MKNK1; 10 µM 0 | NTRK2; 10 µM 0 | NTRK3; 10 µM 0 | PAK4; 10 µM 0 | PBK; 10 µM 0 | PDGFRB; 10 µM 0 | PDK1; 10 µM 0

COc1ccc(S(=O)(=O)N(CCO)c2ccccc2CN(C)C/C=C/c2ccc(Cl)cc2)cc1 [KN-93 (phosphate)]
inactive: MAPK1; 2.5 µM 0 | MAPK4; 2.5 µM 0 | MAPKAPK2; 2.5 µM 0 | MKNK1; 2.5 µM 0 | NTRK2; 2.5 µM 0 | NTRK3; 2.5 µM 0 | PAK4; 2.5 µM 0 | PBK; 2.5 µM 0 | PDGFRB; 2.5 µM 0 | PDK1; 2.5 µM 0

CCS(=O)(=O)N1CCN(c2ccc(Nc3ncc(C(N)=O)c(NC4CC4)n3)cc2)CC1 [Cerdulatinib]
inactive: MAPK1; 10 µM 0 | MAPK4; 10 µM 0 | MAPKAPK2; 10 µM 0 | MKNK1; 10 µM 0 | NTRK2; 10 µM 0 | NTRK3; 10 µM 0 | PAK4; 10 µM 0 | PBK; 10 µM 0 | PDGFRB; 10 µM 0 | PDK1; 10 µM 0

O=C(Nc1cnn2ccc(N3CCC[C@@H]3c3cc(F)ccc3F)nc12)N1CC[C@H](O)C1 [Larotrectinib sulfate]
inactive: MAPK1; 10 µM 0 | MAPK4; 10 µM 0 | MAPKAPK2; 10 µM 0 | MKNK1; 10 µM 0 | NTRK2; 10 µM 0 | NTRK3; 10 µM 0 | PAK4; 10 µM 0 | PBK; 10 µM 0 | PDGFRB; 10 µM 0 | PDK1; 10 µM 0

Retrieved one by one from the entries so far (two):
Nc1ncnc2c1c(-c1ccc(Oc3ccccc3)cc1)nn2[C@@H]1CCCNC1 [IBT6A (hydrochloride)]
inactive: MAPK1; 2.5 µM 0 | MAPK4; 2.5 µM 0 | MAPKAPK2; 2.5 µM 0 | MKNK1; 2.5 µM 0 | NTRK2; 2.5 µM 0 | NTRK3; 2.5 µM 0 | PAK4; 2.5 µM 0 | PBK; 2.5 µM 0 | PDGFRB; 2.5 µM 0 | PDK1; 2.5 µM 0

CCN(CC)CC(=O)Nc1c(C)cccc1C [Lidocaine (hydrochloride)]
inactive: MAPK1; 10 µM 0 | MAPK4; 10 µM 0 | MAPKAPK2; 10 µM 0 | MKNK1; 10 µM 0 | NTRK2; 10 µM 0 | NTRK3; 10 µM 0 | PAK4; 10 µM 0 | PBK; 10 µM 0 | PDGFRB; 10 µM 0 | PDK1; 10 µM 0

Next entries follow:

FC(F)(F)c1ccc(CNc2ccc(Cc3c[nH]c4ncc(Cl)cc34)cn2)cn1 [Pexidartinib (hydrochloride)]
inactive: MAPK1; 10 µM 0 | MAPK4; 10 µM 0 | MAPKAPK2; 10 µM 0 | MKNK1; 10 µM 0 | NTRK2; 10 µM 0 | NTRK3; 10 µM 0 | PAK4; 10 µM 0 | PBK; 10 µM 0 | PDGFRB; 10 µM 0 | PDK1; 10 µM 0

CC(C)Nc1cc(-c2c[nH]c(C(=O)N[C@H](CO)c3cccc(Cl)c3)c2)c(Cl)cn1 [Ulixertinib (hydrochloride)]
inactive: MAPK1; 10 µM 0 | MAPK4; 10 µM 0 | MAPKAPK2; 10 µM 0 | MKNK1; 10 µM 0 | NTRK2; 10 µM 0 | NTRK3; 10 µM 0 | PAK4; 10 µM 0 | PBK; 10 µM 0 | PDGFRB; 10 µM 0 | PDK1; 10 µM 0

Cc1ccc(NC(=O)c2ccc(CN3CCN(C)CC3)cc2)cc1Nc1nc(-c2cccnc2)cs1 [Masitinib (mesylate)]
inactive: MAPK1; 2.5 µM 0 | MAPK4; 2.5 µM 0 | MAPKAPK2; 2.5 µM 0 | MKNK1; 2.5 µM 0 | NTRK2; 2.5 µM 0 | NTRK3; 2.5 µM 0 | PAK4; 2.5 µM 0 | PBK; 2.5 µM 0 | PDGFRB; 2.5 µM 0 | PDK1; 2.5 µM 0

CC(=O)c1c(C)c2cnc(Nc3ccc(N4CCNCC4)cn3)nc2n(C2CCCC2)c1=O [Palbociclib (monohydrochloride)]
inactive: MAPK1; 10 µM 0 | MAPK4; 10 µM 0 | MAPKAPK2; 10 µM 0 | MKNK1; 10 µM 0 | NTRK2; 10 µM 0 | NTRK3; 10 µM 0 | PAK4; 10 µM 0 | PBK; 10 µM 0 | PDGFRB; 10 µM 0 | PDK1; 10 µM 0

Clc1ccc(C2(c3ccc(-c4cn[nH]c4)cc3)CCNCC2)cc1 [AT7867 (dihydrochloride)]
inactive: MAPK1; 2.5 µM 0 | MAPK4; 2.5 µM 0 | MAPKAPK2; 2.5 µM 0 | MKNK1; 2.5 µM 0 | NTRK2; 2.5 µM 0 | NTRK3; 2.5 µM 0 | PAK4; 2.5 µM 0 | PBK; 2.5 µM 0 | PDGFRB; 2.5 µM 0 | PDK1; 2.5 µM 0

COc1ccc(S(=O)(=O)Nc2ccccc2CN(C)C/C=C/c2ccc(Cl)cc2)cc1 [KN-92 (hydrochloride)]
inactive: MAPK1; 2.5 µM 0 | MAPK4; 2.5 µM 0 | MAPKAPK2; 2.5 µM 0 | MKNK1; 2.5 µM 0 | NTRK2; 2.5 µM 0 | NTRK3; 2.5 µM 0 | PAK4; 2.5 µM 0 | PBK; 2.5 µM 0 | PDGFRB; 2.5 µM 0 | PDK1; 2.5 µM 0

CS(=O)(=O)N1CCN(Cc2cc3nc(-c4cccc5[nH]ncc45)nc(N4CCOCC4)c3s2)CC1 [Pictilisib (dimethanesulfonate)]
inactive: MAPK1; 10 µM 0 | MAPK4; 10 µM 0 | MAPKAPK2; 10 µM 0 | MKNK1; 10 µM 0 | NTRK2; 10 µM 0 | NTRK3; 10 µM 0 | PAK4; 10 µM 0 | PBK; 10 µM 0 | PDGFRB; 10 µM 0 | PDK1; 10 µM 0

CCS(=O)(=O)N1CC(CC#N)(n2cc(-c3ncnc4[nH]ccc34)cn2)C1 [Baricitinib (phosphate)]
inactive: MAPK1; 10 µM 0 | MAPK4; 10 µM 0 | MAPKAPK2; 10 µM 0 | MKNK1; 10 µM 0 | NTRK2; 10 µM 0 | NTRK3; 10 µM 0 | PAK4; 10 µM 0 | PBK; 10 µM 0 | PDGFRB; 10 µM 0 | PDK1; 10 µM 0

CNC(=O)c1ccccc1Nc1cc(Nc2ccc(N3CCOCC3)cc2OC)ncc1C(F)(F)F
inactive: MAPK1; 10 µM 0 | MAPK4; 10 µM 0 | MAPKAPK2; 10 µM 0 | MKNK1; 10 µM 0 | NTRK2; 10 µM 0 | NTRK3; 10 µM 0 | PAK4; 10 µM 0 | PBK; 10 µM 0 | PDGFRB; 10 µM 0 | PDK1; 10 µM 0

O=C(O)c1ccc2c(c1)nc(Nc1cccc(Cl)c1)c1ccncc12 [Silmitasertib]
inactive: MAPK1; 10 µM 0 | MAPK4; 10 µM 0 | MAPKAPK2; 10 µM 0 | MKNK1; 10 µM 0 | NTRK2; 10 µM 0 | NTRK3; 10 µM 0 | PAK4; 10 µM 0 | PBK; 10 µM 0 | PDGFRB; 10 µM 0 | PDK1; 10 µM 0

Nc1cncc(-c2cn3ccnc3c(Nc3ccc(N4CCN(C5COC5)CC4)cc3)n2)n1 [Lanraplenib (succinate)]
inactive: MAPK1; 10 µM 0 | MAPK4; 10 µM 0 | MAPKAPK2; 10 µM 0 | MKNK1; 10 µM 0 | NTRK2; 10 µM 0 | NTRK3; 10 µM 0 | PAK4; 10 µM 0 | PBK; 10 µM 0 | PDGFRB; 10 µM 0 | PDK1; 10 µM 0

C=CC(=O)Nc1cc(Nc2ncc(C(=O)OC(C)C)c(-c3cn(C)c4ccccc34)n2)c(OC)cc1N(C)CCN(C)C [Mobocertinib (succinate)]
inactive: MAPK1; 10 µM 0 | MAPK4; 10 µM 0 | MAPKAPK2; 10 µM 0 | MKNK1; 10 µM 0 | NTRK2; 10 µM 0 | NTRK3; 10 µM 0 | PAK4; 10 µM 0 | PBK; 10 µM 0 | PDGFRB; 10 µM 0 | PDK1; 10 µM 0

CCc1nc(C(N)=O)c(Nc2ccc(N3CCC(N4CCN(C)CC4)CC3)c(OC)c2)nc1NC1CCOCC1 [Gilteritinib hemifumarate]
inactive: MAPK1; 2 µM 0 | MAPK4; 2 µM 0 | MAPKAPK2; 2 µM 0 | MKNK1; 2 µM 0 | NTRK2; 2 µM 0 | NTRK3; 2 µM 0 | PAK4; 2 µM 0 | PBK; 2 µM 0 | PDGFRB; 2 µM 0 | PDK1; 2 µM 0

CC(=O)c1c(C)c2cnc(Nc3ccc(N4CCNCC4)cn3)nc2n(C2CCCC2)c1=O [Palbociclib (isethionate)]
inactive: MAPK1; 10 µM 0 | MAPK4; 10 µM 0 | MAPKAPK2; 10 µM 0 | MKNK1; 10 µM 0 | NTRK2; 10 µM 0 | NTRK3; 10 µM 0 | PAK4; 10 µM 0 | PBK; 10 µM 0 | PDGFRB; 10 µM 0 | PDK1; 10 µM 0

COc1ccc(S(=O)(=O)N(CCO)c2ccccc2CN(C)C/C=C/c2ccc(Cl)cc2)cc1 [KN-93 (hydrochloride)]
inactive: MAPK1; 2.5 µM 0 | MAPK4; 2.5 µM 0 | MAPKAPK2; 2.5 µM 0 | MKNK1; 2.5 µM 0 | NTRK2; 2.5 µM 0 | NTRK3; 2.5 µM 0 | PAK4; 2.5 µM 0 | PBK; 2.5 µM 0 | PDGFRB; 2.5 µM 0 | PDK1; 2.5 µM 0

CN1CCCN(C(=O)c2cccc(-c3ccc(/C=C4/C(=O)Nc5ccc(Cl)cc54)o3)c2)CC1
inactive: MAPK1; 2.5 µM 0 | MAPK4; 2.5 µM 0 | MAPKAPK2; 2.5 µM 0 | MKNK1; 2.5 µM 0 | NTRK2; 2.5 µM 0 | NTRK3; 2.5 µM 0 | PAK4; 2.5 µM 0 | PBK; 2.5 µM 0 | PDGFRB; 2.5 µM 0 | PDK1; 2.5 µM 0

COc1cc2c(-c3cnn4cc(N5CCC(N6CCN(C)CC6)CC5)cnc34)ccnc2cc1F
inactive: MAPK1; 10 µM 0 | MAPK4; 10 µM 0 | MAPKAPK2; 10 µM 0 | MKNK1; 10 µM 0 | NTRK2; 10 µM 0 | NTRK3; 10 µM 0 | PAK4; 10 µM 0 | PBK; 10 µM 0 | PDGFRB; 10 µM 0 | PDK1; 10 µM 0

Cn1ncc(Cl)c1-c1cc(C(=O)N[C@H](CN)Cc2cccc(F)c2)sc1Cl [Afuresertib (hydrochloride)]
inactive: MAPK1; 10 µM 0 | MAPK4; 10 µM 0 | MAPKAPK2; 10 µM 0 | MKNK1; 10 µM 0 | NTRK2; 10 µM 0 | NTRK3; 10 µM 0 | PAK4; 10 µM 0 | PBK; 10 µM 0 | PDGFRB; 10 µM 0 | PDK1; 10 µM 0

Cc1[nH]c(/C=C2\C(=O)Nc3ccc(F)cc32)c(C)c1C(=O)NCCN1CCCC1 [Toceranib (phosphate)]
inactive: MAPK1; 2 µM 0 | MAPK4; 2 µM 0 | MAPKAPK2; 2 µM 0 | MKNK1; 2 µM 0 | NTRK2; 2 µM 0 | NTRK3; 2 µM 0 | PAK4; 2 µM 0 | PBK; 2 µM 0 | PDGFRB; 2 µM 0 | PDK1; 2 µM 0
